# According to PubChem BioAssay AID330 (DTP/NCI, 2004):
# The list shows only some results of the screen, not a fair sample: it gathers tests that were run many times, whatever their T/C, doses with no T/C, and many T/C values between a quarter and a half above the control. Further doses and runs are listed elsewhere. T/C: endpoint of the treated group in % of that of the vehicle group. Some entries give survivors of the animals treated and no T/C: the source files T/C as zero there, which appears to mark a toxic dose or a test without result, not a measured value. Some doses without a T/C left all or most animals alive at the check, yet need not have been tolerated: the source hardly ever lists a survival T/C far under the control, and the zero likely stands for such cases as well. Survivors were counted at the toxicity check, usually on the fifth day, unless a day is given; later deaths do not show. Schedules are NCI's codes, taken here to give the interval after Q, in days (D) or hours (H), and the number of doses after X. Some doses were run more than once; the values are given in rising order. Where survival is the endpoint, this PubChem deposit counts one and a half times the control or more as active, and values a quarter to a half above the control carry no call in these data; other NCI protocols may use other cut-offs. Some T/C values are followed by the survivors on the day toxicity was checked, most often the fifth; where none is given, no animal had died by that day.
# Tested on: P388 leukemia ip, CD2F1 mice, survival T/C
# Assay: NCI In Vivo Anticancer Drug Screen. Data for tumor model P388 Leukemia (intraperitoneal) in CD2F1 (CDF1) mice
# Conditions: T/C endpoint: median survival time, higher T/C = longer survival
# [1] = dose: 60.0 mg/kg/injection, schedule: Q01DX005 (ip), vehicle: saline with Tween-80
# [2] = dose: 120.0 mg/kg/injection, schedule: Q01DX005 (ip), vehicle: saline with Tween-80
# [3] = dose: 240.0 mg/kg/injection, schedule: Q01DX005 (ip), vehicle: saline with Tween-80
# [4] = dose: 200.0 mg/kg/injection, schedule: Q01DX009 (ip), vehicle: Klucel (hydroxypropylcellulose) (HPC)
# [5] = dose: 50.0 mg/kg/injection, schedule: Q01DX009 (ip), vehicle: saline
# [6] = dose: 100.0 mg/kg/injection, schedule: Q01DX009 (ip), vehicle: saline
# [7] = dose: 12.5 mg/kg/injection, schedule: Q01DX009 (ip), vehicle: saline
# [8] = dose: 200.0 mg/kg/injection, schedule: Q01DX005 (ip), vehicle: Klucel (hydroxypropylcellulose) (HPC)
# [9] = dose: 200.0 mg/kg/injection, schedule: Q04DX002 (ip), vehicle: saline with Tween-80
# [10] = dose: 400.0 mg/kg/injection, schedule: Q04DX002 (ip), vehicle: saline with Tween-80
# [11] = dose: 120.0 mg/kg/injection, schedule: Q01DX005 (ip), vehicle: Klucel (hydroxypropylcellulose) (HPC)
# [12] = dose: 240.0 mg/kg/injection, schedule: Q01DX005 (ip), vehicle: Klucel (hydroxypropylcellulose) (HPC)
# [13] = dose: 200.0 mg/kg/injection, schedule: Q01DX005 (ip), vehicle: saline with Tween-80
# [14] = dose: 25.0 mg/kg/injection, schedule: Q01DX005 (ip), vehicle: Klucel (hydroxypropylcellulose) (HPC)
# [15] = dose: 50.0 mg/kg/injection, schedule: Q01DX005 (ip), vehicle: Klucel (hydroxypropylcellulose) (HPC)
# [16] = dose: 100.0 mg/kg/injection, schedule: Q01DX005 (ip), vehicle: Klucel (hydroxypropylcellulose) (HPC)
smiles,measurement,setting,value
Cc1cc(OCCCCCCC[N+](C)(C)Cc2ccc([N+](=O)[O-])o2)c(C(C)C)cc1Cl,survivor count,"dose: 50.0 mg/kg/injection, schedule: Q04DX003 (ip), vehicle: saline",3 of 6
same,survivor count,"dose: 100.0 mg/kg/injection, schedule: Q04DX003 (ip), vehicle: saline",0 of 6
same,survivor count,"dose: 200.0 mg/kg/injection, schedule: Q04DX003 (ip), vehicle: saline",0 of 6
same,survivor count,"dose: 400.0 mg/kg/injection, schedule: Q04DX003 (ip), vehicle: saline",0 of 6
CC1(C)CC(=O)C(=[N+]=[N-])C(=O)C1,survivor count,[1],2 of 6
same,survivor count,[2],0 of 6
same,survivor count,[3],0 of 6
c1ccc2c(c1)N=Nc1ccccc1OCCOCCOCCO2,survivor count,"dose: 200.0 mg/kg/injection, schedule: Q01DX001 (ip), vehicle: saline with Tween-80",0 of 6
same,survivor count,"dose: 400.0 mg/kg/injection, schedule: Q01DX001 (ip), vehicle: saline with Tween-80",0 of 6
COC(=O)c1nnn(-c2cc(Cl)ccc2Cl)c1N,T/C,[2],126 % of control
same,survivor count,[3],4 of 6
O=C(CBr)C1(Br)CCN(Cc2ccccc2)CC1,survivor count,"dose: 100.0 mg/kg/injection, schedule: Q01DX009 (ip), vehicle: Klucel (hydroxypropylcellulose) (HPC)",0 of 6
same,survivor count,[4],0 of 6
same,survivor count,"dose: 400.0 mg/kg/injection, schedule: Q01DX009 (ip), vehicle: Klucel (hydroxypropylcellulose) (HPC)",0 of 6
Cc1ccccc1N(CC1CO1)CC1CO1 (stereo not drawn),T/C,"dose: 50.0 mg/kg/injection, schedule: Q01DX009 (ip), vehicle: acetone",140 % of control
same,T/C,[5],128 % of control [5 of 6 alive]
same,T/C,[6],146 % of control
same,T/C,"dose: 200.0 mg/kg/injection, schedule: Q01DX009 (ip), vehicle: acetone",137 % of control
Brc1nc(Br)c(Br)[nH]1,survivor count,"dose: 25.0 mg/kg/injection, schedule: Q01DX009 (ip), vehicle: saline sonified",4 of 6
same,survivor count,"dose: 100.0 mg/kg/injection, schedule: Q01DX009 (ip), vehicle: saline sonified",1 of 6
O=C(O)CCC(=O)CCl,T/C,"dose: 6.25 mg/kg/injection, schedule: Q01DX009 (ip), vehicle: saline",127 % of control
same,T/C,[7],136 % of control
same,survivor count,"dose: 100.0 mg/kg/injection, schedule: Q04DX003 (ip), vehicle: saline with Tween-80",2 of 6
CCNC1CCC(Nc2ccnc3cc(Cl)ccc23)CC1 (stereo not drawn),survivor count,[8],2 of 6
Cc1cc(Cl)c2ccccc2c1N,T/C,"dose: 100.0 mg/kg/injection, schedule: Q01DX009 (ip), vehicle: other",125 % of control
O=C(Nc1ccc(C(=O)O)cc1)Nc1ccc(C(=O)O)cc1,survivor count,"dose: 400.0 mg/kg/injection, schedule: Q04DX002 (ip), vehicle: Klucel (hydroxypropylcellulose) (HPC)",4 of 6
c1ccc2c(C3CCCN4CCCCC34)c[nH]c2c1 (stereo not drawn),survivor count,"dose: 100.0 mg/kg/injection, schedule: Q04DX002 (ip), vehicle: saline with Tween-80",1 of 6 and 3 of 6
same,survivor count,[9],0 of 6
same,survivor count,[10],0 of 6
CC1C(=O)OC2C1CCC1(C)C3(C)C(=O)C=CC213 (stereo not drawn),survivor count,[11],4 of 6
same,survivor count,[12],0 of 6
C(#Cc1ccncc1)c1ccncc1,survivor count,[13],4 of 6
O=C(NCCNC(=O)C12CC3CC(CC(C3)C1)C2)C12CC3CC(CC(C3)C1)C2,survivor count,[14],5 of 5
same,survivor count,[15],5 of 5
same,survivor count,[16],4 of 5
same,survivor count,[8],5 of 5
CN(C)C1C[C@@H](O[Si](C)(C)C(C)(C)C)C=C1S(=O)(=O)c1ccccc1 (stereo partly drawn),survivor count,[11],0 of 6
same,survivor count,[12],0 of 6
CC1=NN(c2ccccc2)C(=O)/C1=C(\[O-])c1ccccc1.CC1=NN(c2ccccc2)C(=O)/C1=C(\[O-])c1ccccc1.CC1=NN(c2ccccc2)C(=O)/C1=C(\[O-])c1ccccc1.[Fe+3],T/C,[1],"93, 97, 102 % of control"
same,survivor count,[1],6 of 6
same,survivor count,[2],6 of 6
same,survivor count,[3],6 of 6
CC(C)N=C(C1=C(O)c2ccccc2C1=O)c1ccccc1,survivor count,[9],3 of 6
same,survivor count,[10],0 of 6
CCCCCCCCCCCC1=C(O)C(=O)C(Cl)=C(O)C1=O,survivor count,"dose: 100.0 mg/kg/injection, schedule: Q01DX005 (ip), vehicle: saline with Tween-80",4 of 6
same,survivor count,[13],0 of 6
COc1cccc2c1C(=O)c1c(O)c3c(c(O)c1C2=O)CC(O)CC3OC1CC(N)C(O)C(C)O1 (stereo not drawn),T/C,"dose: 1.56 mg/kg/injection, schedule: Q01DX009 (ip), vehicle: water",144 % of control
same,survivor count,"dose: 12.5 mg/kg/injection, schedule: Q01DX009 (ip), vehicle: water",3 of 3
same,survivor count,"dose: 25.0 mg/kg/injection, schedule: Q01DX009 (ip), vehicle: water",2 of 3
COC(=O)[CH2][Sn]([CH2]C(=O)OC)([CH]1CCCCC1)[CH]1CCCCC1,survivor count,"dose: 12.5 mg/kg/injection, schedule: Q01DX005 (ip), vehicle: Klucel (hydroxypropylcellulose) (HPC)",6 of 6
same,survivor count,[14],2 of 6
same,survivor count,[15],0 of 6
same,survivor count,[16],0 of 6
same,survivor count,[8],0 of 6
COc1ccc2c(C)cc(NNC(N)=S)nc2c1,survivor count,[8],0 of 6 and 5 of 6
NC(=O)c1cc([N+](=O)[O-])cc([N+](=O)[O-])c1,survivor count,[4],1 of 6
CCOC(CCl)OCC,T/C,[7],"102, 105 [5 of 6 alive], 108, 139 % of control"
same,T/C,"dose: 25.0 mg/kg/injection, schedule: Q01DX009 (ip), vehicle: saline","103, 106, 116, 121 % of control"
same,T/C,[5],"108, 112, 115, 117, 129 % of control"
same,survivor count,[6],2 of 6
same,survivor count,"dose: 200.0 mg/kg/injection, schedule: Q01DX009 (ip), vehicle: saline",0 of 6
same,survivor count,"dose: 400.0 mg/kg/injection, schedule: Q01DX009 (ip), vehicle: saline",0 of 6
C#CC1CC2C3CCC4=CC(=O)CCC4(C)C3CCC2(C)C1N(C)C (stereo not drawn),survivor count,[15],3 of 6
same,survivor count,[16],0 of 6
same,survivor count,[8],0 of 6
COc1cccc2c1C(=O)c1c(O)c3c(c(O)c1C2=O)C[C@@](O)(C(C)=O)C[C@@H]3OC1CC(N(CCO)Cc2ccccc2)C(O)C(C)O1 (stereo partly drawn),T/C,"dose: 16.0 mg/kg/injection, schedule: Q04DX003 (ip), vehicle: water",130 % of control
same,T/C,"dose: 25.0 mg/kg/injection, schedule: Q04DX003 (ip), vehicle: water",129 % of control
CCCCc1ccc(C(N)=O)nc1,survivor count,[8],0 of 6
